Laboratory results: US8568762B2, “Methods for modifying the surface of an implant to provide said surface with calcium” (Biotechnology Institute, I Mas D, S.L., priority 2010, dated 2013)

Test: Test 1: amount of calcium carried away per surface unit (rapid immersion, EDTA titration)
Type: physicochemical

[Ca+2].[Cl-].[Cl-] [CaCl2, calcium chloride]
surface loading coefficient (linear regression, CaCl2 in ethanol, 5 s immersion, drying 1 h 65° C. vacuum, rough surfaces): 3.4±3 ng·mm^−2·mM^−1 | Average variation coefficient (%) of the amount of calcium carried away per surface unit (solvent ethanol): 13.30% | Average variation coefficient (%) of the amount of calcium carried away per surface unit (solvent ethanol and drying): 13.15% | Average variation coefficient (%) of the amount of calcium carried away per surface unit (solvent water): 16.91%
